No constants are given. Whether binding was seen depends on the method and setting. In cells and extracts the contact can be indirect. Some entries that bind do so weakly or less than the wild type.

Chains of the proteins cited; added tags and fusions are not shown. Lines headed by an entry give the natural chain unless they say otherwise; changes in a name come on top. A line that says so, or that is headed by a name, gives the form on record, which may keep a tag or linker. Residues count along the entry.
butyrophilin-3 isoform A1 (BTN3A1) (human (endogenous in MZ1851rc)) (O00481, residues 30-513): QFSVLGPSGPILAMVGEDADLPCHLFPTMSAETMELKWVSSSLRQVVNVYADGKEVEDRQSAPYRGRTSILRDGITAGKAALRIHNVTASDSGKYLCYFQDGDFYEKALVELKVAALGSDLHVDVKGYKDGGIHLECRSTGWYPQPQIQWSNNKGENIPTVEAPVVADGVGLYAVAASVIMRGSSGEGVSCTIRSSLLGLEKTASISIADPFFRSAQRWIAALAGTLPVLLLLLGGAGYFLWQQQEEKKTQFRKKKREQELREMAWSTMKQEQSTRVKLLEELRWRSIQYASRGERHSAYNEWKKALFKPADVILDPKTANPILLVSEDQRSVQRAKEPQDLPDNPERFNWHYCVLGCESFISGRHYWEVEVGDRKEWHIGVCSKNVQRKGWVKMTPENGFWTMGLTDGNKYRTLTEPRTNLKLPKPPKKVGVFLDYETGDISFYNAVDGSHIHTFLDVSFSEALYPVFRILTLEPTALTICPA
phospho-deficient BTN3A1 variant (S296 and T297 substituted with alanine), BTN3A1-Flag (O00481, form named): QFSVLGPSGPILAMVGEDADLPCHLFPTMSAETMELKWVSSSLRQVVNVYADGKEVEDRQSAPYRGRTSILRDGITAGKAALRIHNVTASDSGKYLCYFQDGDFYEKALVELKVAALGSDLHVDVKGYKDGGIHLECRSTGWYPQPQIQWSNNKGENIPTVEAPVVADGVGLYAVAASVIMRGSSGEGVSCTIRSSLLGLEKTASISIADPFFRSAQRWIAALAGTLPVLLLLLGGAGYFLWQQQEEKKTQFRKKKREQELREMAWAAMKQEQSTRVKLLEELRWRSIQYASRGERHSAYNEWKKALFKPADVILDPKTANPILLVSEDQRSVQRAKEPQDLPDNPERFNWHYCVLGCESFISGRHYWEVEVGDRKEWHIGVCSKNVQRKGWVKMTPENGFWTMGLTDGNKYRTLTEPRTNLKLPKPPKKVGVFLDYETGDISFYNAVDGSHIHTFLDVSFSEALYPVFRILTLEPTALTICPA
UniProt Q5VZK9: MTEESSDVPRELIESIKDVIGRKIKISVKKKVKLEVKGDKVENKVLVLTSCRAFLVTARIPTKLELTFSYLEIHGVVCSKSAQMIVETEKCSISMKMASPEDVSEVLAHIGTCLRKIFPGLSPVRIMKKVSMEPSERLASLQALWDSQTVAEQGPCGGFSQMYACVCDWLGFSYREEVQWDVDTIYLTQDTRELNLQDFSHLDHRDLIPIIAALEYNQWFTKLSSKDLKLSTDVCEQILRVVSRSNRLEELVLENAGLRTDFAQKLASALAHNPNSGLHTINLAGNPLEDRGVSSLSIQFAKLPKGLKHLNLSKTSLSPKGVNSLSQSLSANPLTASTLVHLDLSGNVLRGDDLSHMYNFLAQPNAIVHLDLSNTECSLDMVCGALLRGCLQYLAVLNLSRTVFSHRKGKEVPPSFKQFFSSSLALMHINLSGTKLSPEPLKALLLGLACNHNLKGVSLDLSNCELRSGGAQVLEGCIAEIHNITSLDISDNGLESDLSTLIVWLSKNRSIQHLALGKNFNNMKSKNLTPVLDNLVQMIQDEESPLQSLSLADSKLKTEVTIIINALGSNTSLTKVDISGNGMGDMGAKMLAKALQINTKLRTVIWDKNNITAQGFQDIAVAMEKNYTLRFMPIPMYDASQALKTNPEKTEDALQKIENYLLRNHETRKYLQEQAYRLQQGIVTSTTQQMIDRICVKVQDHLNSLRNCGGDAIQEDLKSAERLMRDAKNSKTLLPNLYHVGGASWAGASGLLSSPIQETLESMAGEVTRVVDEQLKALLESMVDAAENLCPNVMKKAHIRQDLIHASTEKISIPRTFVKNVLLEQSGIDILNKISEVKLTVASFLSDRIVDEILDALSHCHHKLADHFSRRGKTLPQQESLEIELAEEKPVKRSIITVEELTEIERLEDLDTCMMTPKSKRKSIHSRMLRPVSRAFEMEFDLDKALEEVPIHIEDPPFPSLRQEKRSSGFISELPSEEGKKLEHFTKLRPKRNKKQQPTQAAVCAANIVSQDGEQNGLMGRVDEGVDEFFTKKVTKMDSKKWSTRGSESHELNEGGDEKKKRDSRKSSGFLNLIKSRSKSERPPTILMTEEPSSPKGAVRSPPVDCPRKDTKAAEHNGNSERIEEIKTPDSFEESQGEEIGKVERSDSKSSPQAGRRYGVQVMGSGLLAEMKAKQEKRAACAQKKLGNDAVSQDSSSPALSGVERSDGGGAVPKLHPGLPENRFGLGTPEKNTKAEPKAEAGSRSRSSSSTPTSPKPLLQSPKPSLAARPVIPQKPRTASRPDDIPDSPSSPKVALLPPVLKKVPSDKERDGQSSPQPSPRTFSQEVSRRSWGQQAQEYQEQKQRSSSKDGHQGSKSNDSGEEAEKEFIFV
UniProt P62745: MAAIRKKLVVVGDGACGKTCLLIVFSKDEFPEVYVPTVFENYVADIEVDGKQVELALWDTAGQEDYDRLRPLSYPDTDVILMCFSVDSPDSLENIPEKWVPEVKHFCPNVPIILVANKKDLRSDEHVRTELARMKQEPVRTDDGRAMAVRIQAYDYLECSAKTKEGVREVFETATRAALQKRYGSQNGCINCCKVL

These results are taken from publication doi:10.1101/2024.11.19.624272.

Test [1] deals with butyrophilin-3 isoform A1 (BTN3A1) (human (endogenous in MZ1851rc)) (UniProt O00481). The test is described as follows: proximity ligation.
The target in test [2] is phospho-deficient BTN3A1 variant (S296 and T297 substituted with alanine), BTN3A1-Flag (human) (UniProt O00481). Kind of test: FRET or BRET. In general terms: Bioluminescence resonance energy transfer reports proximity on the nanometre scale.

Regarding CARMIL1 (from UniProt Q5VZK9 1-1371), the binding entry in test [1] is recorded as “binds”. With RhoB (from UniProt P62745 1-196), the binding result in test [2] is reported as “no binding”.

B1: SYNJ2 (protein, UniProt O15056 1-1496)
chain: MALSKGLRLLGRLGAEGDCSVLLEARGRDDCLLFEAGTVATLAPEEKEVIKGQYGKLTDAYGCLGELRLKSGGTSLSFLVLVTGCTSVGRIPDAEIYKITATDFYPLQEEAKEEERLIALKKILSSGVFYFSWPNDGSRFDLTVRTQKQGDDSSEWGNSFFWNQLLHVPLRQHQVSCCDWLLKIICGVVTIRTVYASHKQAKACLVSRVSCERTGTRFHTRGVNDDGHVSNFVETEQMIYMDDGVSSFVQIRGSVPLFWEQPGLQVGSHHLRLHRGLEANAPAFDRHMVLLKEQYGQQVVVNLLGSRGGEEVLNRAFKKLLWASCHAGDTPMINFDFHQFAKGGKLEKLETLLRPQLKLHWEDFDVFTKGENVSPRFQKGTLRMNCLDCLDRTNTVQSFIALEVLHLQLKTLGLSSKPIVDRFVESFKAMWSLNGHSLSKVFTGSRALEGKAKVGKLKDGARSMSRTIQSNFFDGVKQEAIKLLLVGDVYGEEVADKGGMLLDSTALLVTPRILKAMTERQSEFTNFKRIRIAMGTWNVNGGKQFRSNVLRTAELTDWLLDSPQLSGATDSQDDSSPADIFAVGFEEMVELSAGNIVNASTTNKKMWGEQLQKAISRSHRYILLTSAQLVGVCLYIFVRPYHVPFIRDVAIDTVKTGMGGKAGNKGAVGIRFQFHSTSFCFICSHLTAGQSQVKERNEDYKEITQKLCFPMGRNVFSHDYVFWCGDFNYRIDLTYEEVFYFVKRQDWKKLLEFDQLQLQKSSGKIFKDFHEGAINFGPTYKYDVGSAAYDTSDKCRTPAWTDRVLWWRKKHPFDKTAGELNLLDSDLDVDTKVRHTWSPGALQYYGRAELQASDHRPVLAIVEVEVQEVDVGARERVFQEVSSFQGPLDATVVVNLQSPTLEEKNEFPEDLRTELMQTLGSYGTIVLVRINQGQMLVTFADSHSALSVLDVDGMKVKGRAVKIRPKTKDWLKGLREEIIRKRDSMAPVSPTANSCLLEENFDFTSLDYESEGDILEDDEDYLVDEFNQPGVSDSELGGDDLSDVPGPTALAPPSKSPALTKKKQHPTYKDDADLVELKRELEAVGEFRHRSPSRSLSVPNRPRPPQPPQRPPPPTGLMVKKSASDASISSGTHGQYSILQTARLLPGAPQQPPKARTGISKPYNVKQIKTTNAQEAEAAIRCLLEARGGASEEALSAVAPRDLEASSEPEPTPGAAKPETPQAPPLLPRRPPPRVPAIKKPTLRRTGKPLSPEEQFEQQTVHFTIGPPETSVEAPPVVTAPRVPPVPKPRTFQPGKAAERPSHRKPASDEAPPGAGASVPPPLEAPPLVPKVPPRRKKSAPAAFHLQVLQSNSQLLQGLTYNSSDSPSGHPPAAGTVFPQGDFLSTSSATSPDSDGTKAMKPEAAPLLGDYQDPFWNLLHHPKLLNNTWLSKSSDPLDSGTRSPKRDPIDPVSAGASAAKAELPPDHEHKTLGHWVTISDQEKRTALQVFDPLAKT
Consider B1, for which the binding entry in test [1] was “binds”.
